This note sets out measurements from PMC2223503.

The data set deals with receptors for cholecystokinin (CCK). In words: storage phosphor autoradiography, binding of [125I]BH-CCK-8 to human pancreatic tissue sections. The note with it: 12 pancreatic cancers, result in words.

B1: cholecystokinin (peptide, UniProt P06307 21-115, looked up)
Cholecystokinin: QPVPPADPAGSGLQRAEEAPRRQLRVSQRTDGESRAHLGALLARYIQQARKAPSGRMSIVKNLQNLDPSHRISDRDYMGWMDFGRRSAEEYEYPS
modifications: Cholecystokinin
notes: gut hormone
As for B1, the “receptors in pancreatic cancers” value is reported as “No CCK receptors were identified in pancreatic cancers”.
